Laboratory results from paper PMC12498426, “Conformational Plasticity of LptC Regulates Lipopolysaccharide Transport by the LptB2FGC Complex” (Journal of the American Chemical Society, 2025).
Results are given in words; binding and its absence hold for the method and conditions named. Some binding calls cover weakened binding; strength is not graded here.

Columns and labels:
LptB2FG complex [1] = target: T1, LptB2FG complex (E. coli, UniProt P0A9V1 1-241; P0AF98 1-366; P0ADC6 1-360); experiment: DNP-enhanced solid-state NMR (13C-15N TEDOR); mixed-labelled 15N-LptC with 13C-LptB2FG in POPE/POPG liposomes, apo state, 100 K, 8 kHz MAS, mixing time 6.5 ms; both purified
T1 construct: LptF, transmembrane domain subunit of the lipopolysaccharide transporter, E. coli; LptG, transmembrane domain subunit of the lipopolysaccharide transporter, E. coli; Uniformly 13C-labelled for the TEDOR experiments; also called 13C-LptB2FG; ABC transporter LptB2FG; source: E. coli, co-expressed from pETDuet-1, membranes solubilised in DDM, purified (Ni-NTA); expression as previously described; …
T1 sequence (looked up) 1: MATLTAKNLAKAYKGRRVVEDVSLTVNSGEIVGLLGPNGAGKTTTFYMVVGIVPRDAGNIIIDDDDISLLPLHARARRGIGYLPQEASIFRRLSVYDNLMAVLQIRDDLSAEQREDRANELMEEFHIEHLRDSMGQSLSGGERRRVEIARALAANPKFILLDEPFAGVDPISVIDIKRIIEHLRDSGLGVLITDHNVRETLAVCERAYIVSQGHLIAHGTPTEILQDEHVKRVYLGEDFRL
T1 sequence (looked up) 2: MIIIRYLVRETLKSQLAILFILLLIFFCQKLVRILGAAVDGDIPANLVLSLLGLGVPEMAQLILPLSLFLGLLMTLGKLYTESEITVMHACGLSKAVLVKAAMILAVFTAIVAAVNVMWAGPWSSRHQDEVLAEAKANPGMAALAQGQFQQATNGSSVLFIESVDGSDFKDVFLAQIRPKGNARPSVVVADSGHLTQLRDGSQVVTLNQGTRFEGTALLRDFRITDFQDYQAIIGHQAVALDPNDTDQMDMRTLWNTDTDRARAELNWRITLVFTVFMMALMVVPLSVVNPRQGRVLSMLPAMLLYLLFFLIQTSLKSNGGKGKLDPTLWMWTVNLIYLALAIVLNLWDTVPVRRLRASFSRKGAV
T1 sequence (looked up) 3: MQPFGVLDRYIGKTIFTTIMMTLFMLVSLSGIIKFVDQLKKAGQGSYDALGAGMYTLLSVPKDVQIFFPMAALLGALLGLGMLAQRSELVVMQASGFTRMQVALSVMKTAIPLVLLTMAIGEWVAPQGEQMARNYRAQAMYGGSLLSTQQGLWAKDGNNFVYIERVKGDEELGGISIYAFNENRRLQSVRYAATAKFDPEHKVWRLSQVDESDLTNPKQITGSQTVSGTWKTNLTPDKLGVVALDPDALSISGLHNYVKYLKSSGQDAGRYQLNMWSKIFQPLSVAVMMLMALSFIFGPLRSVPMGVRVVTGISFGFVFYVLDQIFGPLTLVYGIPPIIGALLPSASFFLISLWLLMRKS

LptF (E. coli) [2] = target: T2, LptF (E. coli) (UniProt P0AF98); experiment: as above
T2 sequence: T1 sequence (looked up) 2

LptB2FG complex [3] = target: T1, LptB2FG complex; experiment: DNP-enhanced solid-state NMR (13C-15N TEDOR); mixed-labelled 15N-LptC with 13C-LptB2FG in POPE/POPG liposomes in the ADP-VO4-trapped, the LPS-bound and the combined ADP-VO4-trapped/LPS-bound state, 100 K, 8 kHz MAS, mixing time 6.5 ms; both purified
LptF (E. coli) [4] = target: T2, LptF (E. coli); experiment: as above
LptB2FG complex [5] = target: T1, LptB2FG complex; experiment: native gel or EMSA; blue-native PAGE (with SDS-PAGE) of the assembled LptB2FGC complex (Figure S2A,C); both purified
LptB2FG complex [6] = target: T1, LptB2FG complex; experiment: solid-state NMR (hNCA); 15N,13C-Lys-LptC co-reconstituted 1:1 mol:mol with LptB2FG in POPE/POPG liposomes, apo state, 14 kHz MAS, 850 MHz, 270 K; compared with LptC alone in liposomes; both purified
[7] = target: T3, LptB2FG complex (E. coli) (UniProt P0A9V1+P0AF98+P0ADC6); experiment: SEC; LptB2FG and LptC co-reconstituted into POPE/POPG liposomes, resolubilised in 0.5% DDM, Superdex 200 Increase 10/300 GL; compared with LptB2FG alone; both purified
T3 sequence 1: T1 sequence (looked up) 1
T3 sequence 2: T1 sequence (looked up) 2
T3 sequence 3: T1 sequence (looked up) 3

Measured: binding

B1: LptC, full length with its transmembrane helix (natural protein, E. coli, UniProt P0ADV9 1-191, looked up)
chain: MSKARRWVIIVLSLAVLVMIGINMAEKDDTAQVVVNNNDPTYKSEHTDTLVYNPEGALSYRLIAQHVEYYSDQAVSWFTQPVLTTFDKDKIPTWSVKADKAKLTNDRMLYLYGHVEVNALVPDSQLRRITTDNAQINLVTQDVTSEDLVTLYGTTFNSSGLKMRGNLRSKNAELIEKVRTSYEIQNKQTQP
notes: LptC, E. coli, full length including the transmembrane helix; Isotope labelled for NMR (13C,15N-lysine or uniform 15N); also called 15N-LptC; 15N,13C-Lys-LptC; source: E. coli BL21(DE3), pBAD33.1, membranes solubilised in LS detergent, purified (Ni-NTA)
binds: all assays above
